Measured values from PubChem BioAssay AID853 (Columbia University Molecular Screening Center, 2007).
The list shows a part of the results.

Assay: removal of polyQ htt aggregates in HeLa – imaging, HeLa Exon1htt(103Q)mCFP, confocal imaging, primary screen (AID 853);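 also: cells exposed to compound for three days before fixation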
Conditions: aggregate imaging, measured here: aggregate grain fluorescence fraction, at 1.5 µM, stronger effect = lower value

| SMILES | fraction fluorescence in grains |
| --- | --- |
| Cc1cc(C)cc(OP(C)(=O)Nc2ccc(C)cc2C)c1 (centres undefined) | 11.5 |
| Cc1ccc(C)c(NP(C)(=O)Oc2ccccc2)c1 (centres undefined) | 52.4 |
| CCOP1(=S)c2c(C)nn(CCC#N)c2N=C(c2ccccc2F)N1C (centres undefined) | 17.7 |
| Cc1nn(-c2ccccc2)c2c1P(=O)(N1CCOCC1)N(C)C(c1ccccc1)=N2 (centres undefined) | 25.4 |
| O=P1(Nc2ncccn2)COc2ccccc2OC1 | 31.8 |
| O=P1(Nc2ccc(Br)cn2)COc2ccccc2OC1 | 55.6 |
| O=P1(Nc2ccccn2)COc2ccccc2OC1 | 49 |
| Clc1n[nH]nc1-c1nn[nH][15n]1 | 37.2 |
| CC1(CBr)Cn2c(nc3ccccc3c2=O)S1 (centres undefined) | 8.43 |
| COP1(=S)c2c(C)nn(CCC#N)c2N=C(c2ccc(F)cc2)N1C (centres undefined) | 7.85 |
| CCC(C)N(CC(C)C)C(=S)SC(NC(C)=O)C(Cl)(Cl)Cl (centres undefined) | 30.9 |
| CP(=S)(Nn1cnnc1)Oc1ccccc1 (centres undefined) | 37.1 |
| CN1CCCC(OC(=O)C(c2ccccc2)c2ccccc2)C1 (centres undefined) | 39.6 |
| Cc1c2non([O-])c-2c(C)[n+](=O)[n+]1[O-] | 17.5 |
| CCc1ccc(OP(C)(=O)O)cc1 | 25.5 |
| Cc1nc2ccc3ccccc3c2o1.O=[N+]([O-])c1cc([N+](=O)[O-])c(O)c([N+](=O)[O-])c1 | 25 |
| CP(=O)(OC12CC3CC(CC(C3)C1)C2)OC12CC3CC(CC(C3)C1)C2 | 16.7 |
| CCN(CC)CC(O)COC(=O)C(O)(c1ccccc1)C1CCCCC1 (centres undefined) | 50.2 |
| CCc1nc2c(n1)c1c(non1O)c1c2no[n+]1[O-] | 42.1 |
| CP(=O)(Oc1ccccc1)N1CCOC1=O (centres undefined) | 5 |
| CC1CCN(C(=O)Oc2c(Cl)cc(Cl)c3cccnc23)CC1 | 43.6 |
| O=P(Nc1nccs1)(c1ccccc1)c1ccccc1 | 6.84 |
| CCOP(C)(=S)SCC(=O)NC(C)(CC)C(=O)O (centres undefined) | 29.5 |
| CP(=O)(Nc1ccc2c(c1)OCCO2)Oc1ccccc1 (centres undefined) | 40.7 |
| CN(C)CCOC(=O)C(O)(c1ccccc1)C1CCCCC1 (centres undefined) | 46.8 |
| O=C(OC1CN2CCC1CC2)c1cccc(Cl)c1 (centres undefined) | 75 |
| CP(=O)(Nc1ccccc1)Oc1ccc(F)cc1 (centres undefined) | 36.8 |
| O=P1(Nc2nc3ccc(Cl)cc3s2)COc2ccccc2O1 (centres undefined) | 44.3 |
| CP(=O)(Nc1ccccc1F)Oc1ccccc1 (centres undefined) | 28.9 |
